Laboratory results: PubChem BioAssay AID602196 (INSERM, 2012)
Test: 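Genes whose knock-down alters cisplatin killing of lung cancer cells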. System: human A549 lung cancer cells. Knock-down reagent: siRNA pair against human genes. Duration: 48 h transfection before cisplatin; time from cisplatin to read-out not stated. Conditions: cisplatin at a dose killing half of control-siRNA cells; exact dose and duration not given. Detection: 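Shift in cisplatin death relative to control siRNA, from -50 (all cells die) to +50 (no cells die); siRNAs harmful on their own scored 0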. Scale: two-siRNA summed score (-2 to +2): higher = both siRNAs protect from cisplatin killing; -2 means both sensitise; mean protection from cisplatin (shift in death) and protection from cisplatin (shift in death), siRNA C and protection from cisplatin (shift in death), siRNA D: higher = protection from cisplatin killing. Hit rule: 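Each siRNA scores 0 if harmful alone by LDH or WST-1, otherwise +1 if it reduces and -1 if it increases cisplatin killing; a gene is active when both siRNAs agree (sum +2 or -2)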. Meaning of the calls: active = both siRNAs shift cisplatin killing the same way; inactive = no consistent shift, or siRNA harmful alone.
This is a random part of about 23,000 deposited reagents. Over the whole deposit, 455 (2%) are marked active. 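Active includes both protection and sensitisation; some change values fall well beyond the stated -50 to +50 range.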 A number with no mark means an inactive call. Reagents against one gene are numbered here. Not stated in the record: the amount of reagent.

| gene knocked down | reagent no. | two-siRNA summed score (-2 to +2) | mean protection from cisplatin (shift in death) (%) | protection from cisplatin (shift in death), siRNA C (%) | protection from cisplatin (shift in death), siRNA D (%) |
| --- | --- | --- | --- | --- | --- |
| C3orf52 | 1 | 0 | 3.8 | 2.6 | 5 |
| TLCD3A | 1 | 1 | 12.7 | 24.7 | 0.7 |
| IREB2 | 1 | 0 | 9.3 | 11.8 | 6.8 |
| LOC440617 | 1 | 1 | 14.9 | 10.2 | 19.7 |
| POLB | 1 | 0 | -16.2 | -12.3 | -20.1 |
| TSPAN2 | 1 | 0 | 4.4 | 6.7 | 2.1 |
| PSKH2 | 1 | 1 | 8.7 | 2 | 15.3 |
| LOC391347 | 1 | 0 | -4.6 | -1 | -8.3 |
| SOSTDC1 | 1 | 0 | 6.5 | 0.9 | 12 |
| SLC35B4 | 1 | 0 | -1.2 | 1.6 | -3.9 |
| ZBTB4 | 1 | 0 | -1.6 | -1.3 | -1.9 |
| SLIRP-OT1 | 1 | 0 | 3.7 | -3.3 | 10.8 |
| LOC389534 | 1 | 1 | 13.8 | 2.8 | 24.9 |
| KANSL3 | 1 | 0 | -9.2 | -6.6 | -11.9 |
| LOC387816 | 1 | 1 | 11.2 | 11.4 | 11.1 |
| STIL | 1 | 0 | 10.2 | 14.4 | 6 |
| CLMN | 1 | 0 | 9.3 | 11.7 | 7 |
| CSRP3 | 1 | -1 | -9.7 | -0.3 | -19.1 |
| LOC387932 | 1 | 0 | 18.4 | 27.6 | 9.1 |
| FERD3L | 1 | 0 | 20.1 | 21.1 | 19.1 |
| CLN3 | 1 | 0 | -4.5 | -2.2 | -6.8 |
| CARMIL3 | 1 | 0 | 3.9 | 5.3 | 2.5 |
| LOC401585 | 1 | 0 | 12.8 | 10.5 | 15.1 |

Part of the list above in another layout:
ZBTB4
- two-siRNA summed score (-2 to +2): 0
- mean protection from cisplatin (shift in death) (%): -1.6
- protection from cisplatin (shift in death), siRNA C (%): -1.3
- protection from cisplatin (shift in death), siRNA D (%): -1.9

SLIRP-OT1
- two-siRNA summed score (-2 to +2): 0
- mean protection from cisplatin (shift in death) (%): 3.7
- protection from cisplatin (shift in death), siRNA C (%): -3.3
- protection from cisplatin (shift in death), siRNA D (%): 10.8

LOC389534
- two-siRNA summed score (-2 to +2): 1
- mean protection from cisplatin (shift in death) (%): 13.8
- protection from cisplatin (shift in death), siRNA C (%): 2.8
- protection from cisplatin (shift in death), siRNA D (%): 24.9

Continued:
| gene knocked down | reagent no. | two-siRNA summed score (-2 to +2) | mean protection from cisplatin (shift in death) (%) | protection from cisplatin (shift in death), siRNA C (%) | protection from cisplatin (shift in death), siRNA D (%) |
| --- | --- | --- | --- | --- | --- |
| LAMB2 | 1 | 0 | -10.2 | -5 | -15.4 |
| TBC1D31 | 1 | 0 | -7.1 | -0.7 | -13.5 |
| FBXL17 | 1 | 0 | 0.4 | -5.8 | 6.6 |
| TEF | 1 | 0 | 6.1 | 12.1 | 0.1 |
| LGALS2 | 1 | 1 | 16.7 | 16 | 17.4 |
| DDX4 | 1 | 1 | 6.8 | -2.8 | 16.4 |
| MED22 | 1 | 0 | 6.1 | 5.3 | 6.8 |
| MAGEA11 | 1 | 0 | 8.3 | 10.4 | 6.2 |
| MAGEA11 | 2 | 0 | 8.7 | -1.4 | 18.9 |
| SEC14L3 | 1 | 0 | 0.5 | 2.3 | -1.3 |
| LOC149478 | 1 | 0 | -3.8 | -23.6 | 16 |
| PLPPR3 | 1 | 0 | -3.4 | -2.7 | -4.1 |
| LOC200475 | 1 | 0 | 5.2 | 7.4 | 2.9 |
| IPO5 | 1 | 0 | -16.1 | -21.3 | -10.8 |
| MAB21L2 | 1 | 0 | 8.5 | 4.7 | 12.2 |
| CHRD | 1 | -1 | -7.7 | 1 | -16.5 |
| AP3S2 | 1 | 0 | 4 | 7.9 | 0 |
| RPL27 | 1 | 0 | 16.9 | 13.1 | 20.8 |
| LOC391669 | 1 | 0 | -2.4 | -9.8 | 5.1 |
| LOC283034 | 1 | 0 | 4.2 | 2.5 | 5.9 |
| CSH2 | 1 | 0 | -3 | -13.5 | 7.5 |
| SELENOH | 1 | 0 | 2.2 | 8.4 | -3.9 |
| TBC1D22B | 1 | 0 | 8 | 3.6 | 12.3 |
| GRM3 | 1 | 0 | -2.2 | -5.4 | 0.9 |
| DNAJB14 | 1 | -1 | -12.1 | -21.8 | -2.3 |
| LOC401128 | 1 | 0 | -4.1 | 2.8 | -11 |
| LOC339344 | 1 | 1 | 12.1 | 17.4 | 6.7 |
| CCDC32 | 1 | 1 | 12.6 | 14.8 | 10.4 |
| MRO | 1 | 0 | 12.9 | 22.9 | 2.8 |
| LOC283816 | 1 | 0 | 1.3 | -12.2 | 14.8 |
| OPALIN | 1 | 0 | -4.5 | -10 | 1.1 |
| TOX4P1 | 1 | 1 | 12.5 | 14.8 | 10.2 |
| NR1I3 | 1 | -2 (active) | -14.9 | -10.2 | -19.6 |
| GLS | 1 | 1 | 5.6 | -4.1 | 15.4 |
